Among the data in article PMC8511950 are binding values, retold here.

Sequences of proteins named here, by UniProt entry; tags and fusion partners are left off.
UniProt P16370: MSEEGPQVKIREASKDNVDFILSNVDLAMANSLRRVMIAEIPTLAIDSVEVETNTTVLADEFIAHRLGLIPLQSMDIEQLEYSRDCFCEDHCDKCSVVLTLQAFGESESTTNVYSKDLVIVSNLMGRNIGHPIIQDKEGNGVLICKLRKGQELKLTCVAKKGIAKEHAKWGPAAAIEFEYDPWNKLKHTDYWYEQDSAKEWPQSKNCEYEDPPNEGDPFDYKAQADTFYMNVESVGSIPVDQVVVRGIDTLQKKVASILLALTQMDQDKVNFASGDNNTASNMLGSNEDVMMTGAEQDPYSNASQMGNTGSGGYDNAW

Results are given in words; binding and its absence hold for the method and conditions named. Binding seen in cells or lysates may run through a third protein. A yes stands for co-enrichment or nearness to the bait. Other partners may have been found.

B1: Nqm1 (protein, UniProt P53228 1-333)
chain: MSEPSEKKQKVATSSLEQLKKAGTHVVADSGDFEAISKYEPQDSTTNPSLILAASKLEKYARFIDAAVEYGRKHGKTDHEKIENAMDKILVEFGTQILKVVPGRVSTEVDARLSFDKKATVKKALHIIKLYKDAGVPKERVLIKIASTWEGIQAARELEVKHGIHCNMTLLFSFTQAVACAEANVTLISPFVGRIMDFYKALSGKDYTAETDPGVLSVKKIYSYYKRHGYATEVMAASFRNLDELKALAGIDNMTLPLNLLEQLYESTDPIENKLNSESAKEEGVEKVSFINDEPHFRYVLNEDQMATEKLSDGIRKFSADIEALYKLVEEKM
B2: Rep2 (protein, UniProt P03872 1-296)
chain: MDDIETAKNLTVKARTAYSVWDVCRLFIEMIAPDVDIDIESKRKSDELLFPGYVIRPMESLTTGRPYGLDSSAEDSSVSSDSSAEVILPAAKMVKERFDSIGNGMLSSQEASQAAIDLMLQNNKLLDNRKQLYKSIAIIIGRLPEKDKKRATEMLMRKMDCTQLLVPPAPTEEDVMKLVSVVTQLLTLVPPDRQAALIGDLFIPESLKDIFNSFNELAAENRLQQKKSELEGRTEVNHANTNEEVPSRRTRSRDTNARGAYKLQNTITEGPKAVPTKKRRVATRVRGRKSRNTSRV
B3: Rpl8B (protein, UniProt P29453 1-256)
chain: MAPGKKVAPAPFGAKSTKSNKAKNPLTHSTPKNFGIGQAVQPKRNLSRYVKWPEYVRLQRQKKILSIRLKVPPTIAQFQYTLDRNTAAETFKLFNKYRPETAAEKKERLTKEAAAIAEGKSKQDASPKPYAVKYGLNHVVSLIENKKAKLVLIANDVDPIELVVFLPALCKKMGVPYAIIKGKARLGTLVNQKTSAVAALTEVRAEDEAALAKLVSTIDANFADKYDEVKKHWGGGILGNKAQAKMDKRAKTSDSA
B4: Tsr1 (protein, UniProt Q07381 1-788)
chain: MAGHSHRSSLKNGHKSYKSKHASKGALKRLYKGKVEKEPVGTGKPDKQVSKLQRKNKAKQLRAQRILDSIENRKLFEGKNGAAKIITIVPLVNDLDPLDILYKLLKCADDEGIMVQEVDSKRIFNVHIKKFKSNLKIIIPDMTNFLNILDCAKVADFVVFGLSGVQEVDEEFGEQIIRALELQGIASYIGVISNLSAVHEKEKFQLDVKQSLESYFKHFFPSEERVYNLEKNSDALNVLRTLCQRLPRSINWRDNRGYVVADFVDFVETSPDSGDLVIEGTVRGIGFNANRLVHIPDFGDFQLNKIEKISESSQKRKIIKEKATDSLSLELDLQTVFESNMNRDTLDEYAPEGTEDWSDYDEDFEYDGLTTARYDDHGFLPGREQTSKKAAVPKGTSDYQAKWYLDDVIDANEEEEAEQTNGKDETMMEIDDEMMVEQDNEEVAGDEEYDIEDNEGFEELSPEEEERQLREFRDMEKEDREFPDEIELEPSESAIERLKRYRGLKNLYNCDWQVDEKDPSSPAEWKRLLRIGNYKNTKNRIIKETKNEAQAIAGDRIRMFIRFPKFLLEKIQDPKQLLFAVYGLLLHEHKNAVVNFSLQRWEQYDKPVPSQEPIVVQYGVRRYTIQPLFSQGSNSPNNVHKYERFLHPDTVSVATCIAPVDFTQSPAIFFKPSPTDAKNIELIGHGTFLNADHSRILAKRAILTGHPFRFHKTVVTVRYMFFRPEDVEWFKSIPLFTKSGRSGFIKESLGTHGYFKATFDGKLSAQDVVAMSLYKRMWPMPSLPWNGM
B5: Rep1 (protein, UniProt P03871 1-373)
chain: MNGERLLACIKQCIMQHFQPMVYDESRCVIETTRGTFPVPDNYKKYKTLAFAFVGHVLNTDDTPVIEKELDWPDPALVYNTIVDRIINHPELSQFISVAFISQLKATIGEGLDINVKGTLNRRGKGIRRPKGVFFRYMESPFVNTKVTAFFSYLRDYNKIASEYHNNTKFILTFSCQAYWASGPNFSALKNVIRCSIIHEYISKFVEREQDKGHIGDQELPPEEDPSRELNNVQHEVNSLTEQDAEADEGLWGEIDSLCEKWQSEAEDQTEAEIIADRIIGNSQRMANLKIRRTKFKSVLYHILKELIQSQGTVKVYRGSSFSHDSIKISLHYEEQHITAVWVYLTVKFEEHWKPVDVEVEFRCKFKERKVDG
B6: Bur2 (protein, UniProt Q05949 1-395)
chain: MSATSSSGDVKKFQAVPKPTSNASPPPASSGFNARTLWPDLIETPENQWVFECKDIIEKIGTNGPIAVEIKKNMEKCLMYFYTLKKKLNLFDHTYTASCILFYRYWFIYGIPTAITECIHISQGILVTACKTMENNRPIEAYIKATCEFLMQNIPSLKSRTNIDKLKWEFRDKLVTNEKKILCLFGFDLNISNPKELIEEVFSGYYRFNRDHNLPENFKKAFPKILQESRNFMVQAVTQPVSLLCDGYTFIVLSLIYCGLEYKKLVDKDFRYPKNFFKDRFPIEVTPENFANIFTDYKLLEENFFNLKSNKGAKLQIDSSMIDSVIDESGDVENEVSEISDPFNYELIKSGEVKEEFLNHIETRVKDLLDKAKQESMKRKAKDPIRTPDAKKPKI
B7: Orc4 (protein, UniProt P54791 1-529)
chain: MTISEARLSPQVNLLPIKRHSNEEVEETAAILKKRTIDNEKCKDSDPGFGSLQRRLLQQLYGTLPTDEKIIFTYLQDCQQEIDRIIKQSIIQKESHSVILVGPRQSYKTYLLDYELSLLQQSYKEQFITIRLNGFIHSEQTAINGIATQLEQQLQKIHGSEEKIDDTSLETISSGSLTEVFEKILLLLDSTTKTRNEDSGEVDRESITKITVVFIFDEIDTFAGPVRQTLLYNLFDMVEHSRVPVCIFGCTTKLNILEYLEKRVKSRFSQRVIYMPQIQNLDDMVDAVRNLLTVRSEISPWVSQWNETLEKELSDPRSNLNRHIRMNFETFRSLPTLKNSIIPLVATSKNFGSLCTAIKSCSFLDIYNKNQLSNNLTGRLQSLSDLELAILISAARVALRAKDGSFNFNLAYAEYEKMIKAINSRIPTVAPTTNVGTGQSTFSIDNTIKLWLKKDVKNVWENLVQLDFFTEKSAVGLRDNATAAFYASNYQFQGTMIPFDLRSYQMQIILQELRRIIPKSNMYYSWTQL
B8: Spn1 (protein, UniProt Q06505 1-410)
chain: MSTADQEQPKVVEATPEDGTASSQKSTINAENENTKQNQSMEPQETSKGTSNDTKDPDNGEKNEEAAIDENSNVEAAERKRKHISTDFSDDDLEKEEHNDQSLQPTVENRASKDRDSSATPSSRQELEEKLDRILKKPKVRRTRRDEDDLEQYLDEKILRLKDEMNIAAQLDIDTLNKRIETGDTSLIAMQKVKLLPKVVSVLSKANLADTILDNNLLQSVRIWLEPLPDGSLPSFEIQKSLFAALNDLPVKTEHLKESGLGRVVIFYTKSKRVEAQLARLAEKLIAEWTRPIIGASDNYRDKRIMQLEFDSEKLRKKSVMDSAKNRKKKSKSGEDPTSRGSSVQTLYEQAAARRNRAAAPAQTTTDYKYAPVSNLSAVPTNARAVGVGSTLNNSEMYKRLTSRLNKKHK
B9: Ebp2 (protein, UniProt P36049 1-427)
chain: MAKGFKLKELLSHQKEIEKAEKLENDLKKKKSQELKKEEPTIVTASNLKKLEKKEKKADVKKEVAADTEEYQSQALSKKEKRKLKKELKKMQEQDATEAQKHMSGDEDESGDDREEEEEEEEEEEGRLDLEKLAKSDSESEDDSESENDSEEDEDVVAKEESEEKEEQEEEQDVPLSDVEFDSDADVVPHHKLTVNNTKAMKHALERVQLPWKKHSFQEHQSVTSETNTDEHIKDIYDDTERELAFYKQSLDAVLVARDELKRLKVPFKRPLDYFAEMVKSDEHMDKIKGKLIEEASDKKAREEARRQRQLKKFGKQVQNATLQKRQLEKRETLEKIKSLKNKRKHNEIDHSEFNVGVEEEVEGKRFDRGRPNGKRAAKNAKYGQGGMKRFKRKNDATSSADVSGFSSRKMKGKTNRPGKSRRARRF

This experiment deals with Rpb3 with C-terminal BioTAP tag (S. cerevisiae) (UniProt P16370). The experiment is described as follows: affinity purification with mass spectrometry; BioTAP-XL two-step purification of Rpb3-BioTAP (IgG beads, then streptavidin agarose) from 1% formaldehyde-cross-linked wildtype and spt6-1004 cells shifted to 37 °C for 80 min; on-bead trypsin digestion, TMT labelling, MS3 quantification; untagged wildtype and spt6-1004 cells as controls; FDR cutoff 0.05.
As to B1, the binding entry is listed as “binds”.

Consider B2, for which the binding entry is reported as “binds”.

As for B3, the binding entry is “binds”.

In the case of B4, the binding result was “binds”.

As to B5, the binding result was “binds”.

Consider B6, for which the binding result is recorded as “binds”.

In the case of B7, the binding result is listed as “binds”.

For B8, the binding entry is “binds”.

For the molecule B9, the binding entry is on record as “binds”.
